No constants are given. Whether binding was seen depends on the method and setting.
Tests used:
Test in all cases: flow cytometry on cells; lymph node or spleen cells of wild-type, CD55-/-, Crry-/- and CD59a-/- mice incubated with Pra1 (10 μg/ml) in PBS at 37°C, with or without ZnCl2; bound Pra1 detected with rabbit anti-Pra1 antiserum; gated on CD4+ T cells; Pra1 staining compared between wild-type and knock-out cells; only the binder purified
[1] = biological target: T1, CD55, mouse complement regulatory protein (mouse (endogenous in lymph node CD4+ T cells)) (UniProt Q61475)
T1 sequence: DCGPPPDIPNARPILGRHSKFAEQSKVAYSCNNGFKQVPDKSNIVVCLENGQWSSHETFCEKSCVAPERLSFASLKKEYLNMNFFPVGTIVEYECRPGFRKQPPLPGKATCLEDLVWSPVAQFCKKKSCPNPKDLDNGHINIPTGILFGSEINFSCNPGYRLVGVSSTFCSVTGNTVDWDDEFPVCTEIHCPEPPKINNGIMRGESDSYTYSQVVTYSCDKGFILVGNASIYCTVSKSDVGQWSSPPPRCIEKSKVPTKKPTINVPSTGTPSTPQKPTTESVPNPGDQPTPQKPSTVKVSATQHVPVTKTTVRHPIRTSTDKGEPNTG

Protein sequences, listed by entry. Tags and fused reporters are not part of them. Residues count along the entry.
UniProt Q64735, residues 41-483: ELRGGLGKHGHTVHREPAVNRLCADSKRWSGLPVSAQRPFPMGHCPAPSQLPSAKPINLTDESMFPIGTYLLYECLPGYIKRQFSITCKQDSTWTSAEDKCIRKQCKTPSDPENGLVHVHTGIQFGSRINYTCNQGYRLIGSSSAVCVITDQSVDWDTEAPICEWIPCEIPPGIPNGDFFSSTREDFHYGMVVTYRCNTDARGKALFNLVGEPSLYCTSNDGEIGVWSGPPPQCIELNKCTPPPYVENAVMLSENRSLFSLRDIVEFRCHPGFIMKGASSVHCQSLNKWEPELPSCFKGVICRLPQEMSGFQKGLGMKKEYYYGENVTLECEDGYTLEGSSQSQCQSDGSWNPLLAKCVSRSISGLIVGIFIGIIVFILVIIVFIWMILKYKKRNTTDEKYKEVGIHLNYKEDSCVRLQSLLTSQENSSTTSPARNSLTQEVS

[2] = biological target: T2, CD59a, mouse complement regulatory protein (mouse (endogenous in splenic CD4+ T cells)) (UniProt O55186)
T2 sequence: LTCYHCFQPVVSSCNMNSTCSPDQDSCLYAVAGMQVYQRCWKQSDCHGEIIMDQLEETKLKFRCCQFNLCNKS

[3] = biological target: Crry, mouse complement regulatory protein (mouse (endogenous in splenic CD4+ T cells)) (UniProt Q64735)

Measured: binding

B1: pH-regulated antigen 1 (Pra1) from Candida albicans, recombinant wild type (protein, UniProt P87020 16-299)
chain: APVTVTRFVDASPTGYDWRADWVKGFPIDSSCNATQYNQLSTGLQEAQLLAEHARDHTLRFGSKSPFFRKYFGNETASAEVVGHFDNVVGADKSSILFLCDDLDDKCKNDGWAGYWRGSNHSDQTIICDLSFVTRRYLTQLCSSGYTVSKSKTNIFWAGDLLHRFWHLKSIGQLVIEHYADTYEEVLELAQENSTYAVRNSNSLIYYALDVYAYDVTIPGEGCNGDGTSYKKSDFSSFEDSDSGSDSGASSTASSSHQHTDSNPSATTDANSHCHTHADGEVHC
no binding (tested: 10 μg/ml): all assays above

From publication PMC5425473
